Here are results for nine molecules from patent US20240117054A1 (DRAGONFLY THERAPEUTICS, published 2024).

Amino acid sequences for entries named in this document (tags omitted). Residues count along the entry.
UniProt P36888, residues 27-541: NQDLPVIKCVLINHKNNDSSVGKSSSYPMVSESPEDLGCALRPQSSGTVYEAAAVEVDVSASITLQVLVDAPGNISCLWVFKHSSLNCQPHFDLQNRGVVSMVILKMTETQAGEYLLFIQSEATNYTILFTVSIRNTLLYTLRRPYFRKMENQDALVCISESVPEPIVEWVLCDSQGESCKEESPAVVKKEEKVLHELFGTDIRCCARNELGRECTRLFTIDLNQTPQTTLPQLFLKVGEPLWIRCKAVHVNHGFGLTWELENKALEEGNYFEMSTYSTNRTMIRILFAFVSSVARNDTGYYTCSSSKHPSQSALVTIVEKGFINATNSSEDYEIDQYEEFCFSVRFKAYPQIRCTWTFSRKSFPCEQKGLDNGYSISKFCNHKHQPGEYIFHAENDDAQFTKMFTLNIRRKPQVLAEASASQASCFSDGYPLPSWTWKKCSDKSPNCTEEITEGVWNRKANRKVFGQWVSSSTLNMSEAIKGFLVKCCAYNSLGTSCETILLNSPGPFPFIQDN

Test [1] deals with cynomolgus monkey FLT3 (cFLT3) expressed on RMA cells (cynomolgus monkey). As to the kind of experiment: flow cytometry, purified mAb on RMA-cFLT3 cells.
In another test the target is T1, hFLT3-His fusion protein (human, UniProt P36888 27-541, limits assumed).
T1 construct: Soluble recombinant antigen used for immunisation, ELISA, SPR and BLI binning; also called recombinant hFLT3 protein; not shown: His tag
In words: SPR, purified murine subclone, hFLT3-His, 1:1 binding fit. In general terms: Surface plasmon resonance follows binding to a sensor surface in real time, without labels.

For test [2], the target named is cynomolgus monkey FLT3 (cFLT3) expressed on RMA cells (cynomolgus monkey). As to the kind of experiment: flow cytometry on RMA-cFLT3 cells, anti-human IgG secondary. (In general: Flow cytometry measures light scatter and fluorescence of single cells or particles in a stream.)
Test [3] has the same target. As to the kind of experiment: flow cytometry on RMA-cFLT3 cells, anti-human IgG secondary antibody, fold over background (FOB).

Results are given in words; binding and its absence hold for the method and conditions named. Some results given as binding are weak or reduced against the parent protein; the word gives no strength.

B1: 15A11.C8 (antibody, V domains shown)
VH: EVQLQESGGGLVKTGGSRKLSCAASGFTFSDYGMHWVRHTPEKGLEWVVYISSGGNTIFYTDTVKGRFTISRDNAKNTLFLQMTSLRSEDTAVYFCVRQGYYYAMDYWGQGASVTVSS
VL: DIQMTQTTSSLSASLGDRVTIRCRASQDITNYLNWYQQKPDGAVKLLISYTSILQSGVPSRFSGSGSGTDYSLTISNLEQGDVATYFCQQGSSLPWTFGGGTKLEIK
notes: Purified murine mAb from a hybridoma subclone
For B1, the binding entry in test [1] is on record as “binds”.

B2: 4H2.E3 (antibody, V domains shown)
VH: EVQLQESGPELVKPGASVKMSCKASGYTFTSYLMHWMKQKPGQGLEWIGYINPYSDGIKYNEKFRDKATLTSDKSSNTAYMELSSLTSEDSAVYYCAHSSGYVGYAMDYWGQGTSVTVSS
VL: GIVMTQTTPSVPVTPGESVSISCRSSKSLLHSNGNTYLYWFLQRPGQSPQLLIYRMSNLASGVPDRFSGSGSGTTFTLRISRVEAEDVGVYYCMQHLEYPFTFGSGTKLEIK
notes: as for B1
With B2, the binding entry in test [1] is “binds”.

B3: 14A5.E8 (antibody, V domains shown)
VH: EVQLQESGAELVQPGASVRLSCKASGYTFTSYWINWVKQRPGQGLEWIGNIYPGSSIINYNENFKNRATLTVDTSSSTAYMQLSSLTSDDSAVYYCARRVVYLYFDYWGQGTTLTVSS
VL: QIVLTQSPAIMSASPGEKVTMTCSASSSVSYMHWYQQKSGTSPKRWIYDTSKLASGVPARFSGSGSGTSYSLTISSMEAEDAATYYCQQWTSKSPTFGGGTKLEIK
notes: as for B1
As for B3, in test [1], the binding entry is “binds”.

B4: 4A4.A3 (antibody, V domains shown)
VH: QVTLKESGPGILQPSQTLSLTCSFSGFSLTTYGMGVGWIRQPSGKGLEWLANIWFNDNKYYNSTLKSRLTISKDTSNNQVFLKISSVDTTDTATYYCAQITTVVGTFDYWGQGSPLTVSP
VL: RIVMTQSPTTMAASPGEKITITCSASSSISSIYLHWYQQKPGFSPKLLIFRTSDLASGVPPRFGGSGSGTSYSLTIGTMEAEDVATYYCQQGSSFPRTFGGGTKLEIK
notes: as for B1
As to B4, in test [1], the binding entry was “binds”.

B5: 4A4.H7 (antibody, V domains shown)
VH: EVQLQESGPELVKPGASVKISCKASGYSFTGYYIHWVKQSPEESLEWIGEIYPNTGITTYNQKFTAKATLTVDKSSNTAYMQLKSLTSEDSAVYYCTRWGDYYGRDYWGQGTSVTVSS
VL: DIVLTQSPASLAVSLGQRATISCRASETVDTHGNSFMHWYQQKPGQPPKLLIYRASNLESGIPARFSGSGSRTDFTLTINPVEADDVATYYCQQSNEDPRTFGGGTKLEIK
As to B5, the binding result with hFLT3-His fusion protein is on record as “binds”.

B6: 1A2.A3 (antibody, V domains shown)
VH: EVQLQESGPELVKPGASVKISCKASGYSFTGYYIHWVKQSPEESLEWIGEIYPNTGITTYNQKFTAKATLTVDKSSNTAYMQLKSLTSEDSAVYYCTRWGDYYGRDYWGQGTSVTVSS
VL: DIVLTQSPASLAVSLGQRATISCRASETVDTHGNSFMHWYQQKPGQPPKLLIYRASNLESGIPARFSGSGSRTDFTLTINPVEADDVATYYCQQSNEDPRTFGGGTKLEIK
notes: as for B1
Turning to B6, in test [1], the binding entry is “binds”.

B7: 11F4.B9 (antibody, V domains shown)
VH: EVQLQESGPELVKPGASVKISCKASGYSFTGYYIHWVKQGPEKSLEWIGEIIPSTGSTIYNQKFKAKATLTVDKSSSTAYLQLKSLTSEDSAVYYCERWGDYYGRDYWGQGTSVTVSS
VL: DIVLTQSPASLAVSLGQRATISCRASESVDIYGNSFMHWYQQKPGQPPKLLIYRASNLESGIPARFSGSGSRTDFTLTINPVEADDVATYYCQQSNEDPRTFGGGTKLEIK
notes: as for B1
On to B7, for which the binding entry in test [1] was “binds”.

B8: 12H10.G7 (antibody, V domains shown)
VH: EVQLQESGPELVKPGASVKMSCKASGYTFTRYVMHWVKQRPGQGLEWIGFINPYNDDTKYNEKFKGKATLTSDKSSSTAYMELSSLTSEDSAVYHCARWRQLGSLDSWGQGTTLTVSS
VL: NIVLTQSPASLAVSLGQRATISCRASESVDTYGSSFVHWYQQKPGQPPKLLIYLASNLESGVPARFSGSGSRSDFTLTIDPVEADDAATYYCQQNNEEPWTFGGGTKLEIK
notes: as for B1
For B8, in test [1], the binding result is on record as “binds”.

B9: GB102 monoclonal antibody in the human IgG1 format (antibody, V domains shown)
VH: QVQLVQSGAEVKKPGASVKVSCKASGYTFTRYVMHWVRQAPGQRLEWMGFINPYNDDTKYNEKFKGRVTITRDTSASTAYMELSSLRSEDTAVYYCARWRQLGSLDSWGQGTTVTVSS
VL: DIVMTQSPDSLAVSLGERATINCRASESVDTYGSSFVHWYQQKPGQPPKLLIYLASNLESGVPDRFSGSGSGTDFTLTISSLQAEDVAVYYCQQNNEEPWTFGGGTKVEIK
notes: also called parental mAb
For the molecule B9, the binding entry in test [2] and in test [3] was “binds” each time.
